For 3 molecules, binding results are on record in publication PMC2638020.

These are yes or no findings as the source states them, for the method shown.

Common to all, as to assay: AUC; sedimentation velocity; 0.2–0.8 mg/ml protein in 10 mM HEPES (pH 7.5), 150 mM NaCl, 1 mM TCEP, 8°C, 50,000 rpm; c(s) distributions (SEDFIT); both purified
Test [1] has as its target GLEPP1 catalytic (PTP) domain (human) (UniProt Q16827).
Test [2] addresses IA2β catalytic (PTP) domain (human) (UniProt Q92932).
For test [3], the target named is STEP catalytic (PTP) domain (human) (UniProt P54829).

B1: GLEPP1 catalytic (PTP) domain (domain or fragment, UniProt Q16827 916-1208)
chain: NPVQLDDFDAYIKDMAKDSDYKFSLQFEELKLIGLDIPHFAADLPLNRCKNRYTNILPYDFSRVRLVSMNEEEGADYINANYIPGYNSPQEYIATQGPLPETRNDFWKMVLQQKSQIIVMLTQCNEKRRVKCDHYWPFTEEPIAYGDITVEMISEEEQDDWACRHFRINYADEMQDVMHFNYTAWPDHGVPTANAAESILQFVHMVRQQATKSKGPMIIHCSAGVGRTGTFIALDRLLQHIRDHEFVDILGLVSEMRSYRMSMVQTEEQYIFIHQCVQLMWMKKKQQFCISDV
For the molecule B1, the binding entry in test [1] is “no binding (tested: 0.8 mg/ml (∼24 μM))”.

B2: IA2β catalytic (PTP) domain (domain or fragment, UniProt Q92932 715-1010)
chain: SEEPVQSNMDISTGHMILSYMEDHLKNKNRLEKEWEALCAYQAEPNSSFVAQREENVPKNRSLAVLTYDHSRVLLKAENSHSHSDYINASPIMDHDPRNPAYIATQGPLPATVADFWQMVWESGCVVIVMLTPLAENGVRQCYHYWPDEGSNLYHIYEVNLVSEHIWCEDFLVRSFYLKNLQTNETRTVTQFHFLSWYDRGVPSSSRSLLDFRRKVNKCYRGRSCPIIVHCSDGAGRSGTYVLIDMVLNKMAKGAKEIDIAATLEHLRDQRPGMVQTKEQFEFALTAVAEEVNAIL
Turning to B2, the binding entry in test [2] is listed as “no binding (tested: 0.8 mg/ml (∼24 μM))”.

B3: STEP catalytic (PTP) domain (domain or fragment, UniProt P54829 282-563)
chain: SRVLQAEELHEKALDPFLLQAEFFEIPMNFVDPKEYDIPGLVRKNRYKTILPNPHSRVCLTSPDPDDPLSSYINANYIRGYGGEEKVYIATQGPIVSTVADFWRMVWQEHTPIIVMITNIEEMNEKCTEYWPEEQVAYDGVEITVQKVIHTEDYRLRLISLKSGTEERGLKHYWFTSWPDQKTPDRAPPLLHLVREVEEAAQQEGPHCAPIIVHCSAGIGRTGCFIATSICCQQLRQEGVVDILKTTCQLRQDRGGMIQTCEQYQFVHHVMSLYEKQLSHQS
Regarding B3, in test [3], the binding result is reported as “no binding (tested: 0.8 mg/ml (∼24 μM))”.
